Consider 2 molecules from article PMC12188314.

The chains behind the UniProt entries cited, without tags or fusion partners. Where a name states a change or a piece, a line headed by the entry shows the natural chain unless it says otherwise.
UniProt Q99P58: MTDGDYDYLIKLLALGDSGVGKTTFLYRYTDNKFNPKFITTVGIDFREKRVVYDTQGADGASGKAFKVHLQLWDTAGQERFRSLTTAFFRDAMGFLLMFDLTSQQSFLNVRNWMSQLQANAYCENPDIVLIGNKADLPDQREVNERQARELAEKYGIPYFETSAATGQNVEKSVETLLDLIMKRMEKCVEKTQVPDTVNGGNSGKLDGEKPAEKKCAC

The target in this experiment is Rab27B(CA)ΔCys, pGBD-C1 two-hybrid fusion (UniProt Q99P58). Kind of experiment: two-hybrid; pGBD-C1-Rabs(CA)ΔCys as bait, pAct2-RBD27 (WT or mutant) as prey; growth on synthetic complete medium lacking adenine, histidine, leucine and tryptophan, 30°C, ~1 week.

These are yes or no findings as the source states them, for the method shown. Binding calls can cover weak binding; strength is not graded here. Where a sequence is shown, tags or fusion partners need not be part of it.

B1: RBD27-WT (synaptotagmin-like protein homology domain of Slp2-a), pAct2 two-hybrid fusion (domain or fragment, UniProt Q99N50-1 1-87)
chain: MIDLSFLTEEEQDAILKVLQRDAALKRAEEERVRHLPEKIKDDQQLKNMSGQWFYEAKAKRHRDKIHGADIIRASMRRKKLPAAAEQ
On to B1, for which the binding result is listed as “binds”.

B2: RBD27-mut (E11A/R32A), pAct2 two-hybrid fusion (domain or fragment, UniProt Q99N50 1-87)
chain: MIDLSFLTEEAQDAILKVLQRDAALKRAEEEAVRHLPEKIKDDQQLKNMSGQWFYEAKAKRHRDKIHGADIIRASMRRKKLPAAAEQ
With B2, the binding entry is listed as “no binding”.
